PubChem BioAssay AID493014 (National Center for Advancing Translational Sciences (NCATS), 2011)
In all, about 340,000 compounds went through this assay and about 170 (0.05%) were called active. The shares of active, inactive and inconclusive entries below differ from those in the screen. The call rests on the fitted dose curve; in most records, active means well fitted inhibition curve with a large enough effect in the signal ratio, with a control signal flat (not every such curve was filed as active); inconclusive means small, poorly fitted or top-dose-only effect, or effect the other way, or a change in a side signal; inactive means flat fitted curve, though single readings scatter; the % refers to the signal ratio. A potency beside an inconclusive call is a rough fit, not a confirmed value.

Assay: qHTS Assay to Find Inhibitors of Chronic Active B-Cell Receptor Signaling;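 on activity change, negative = inhibition: plate controls were basal doxycycline-induced cells for no effect and cells given 10 µM MG132 for full effect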
Conditions: ABC-DLBCL IkBa-CBG/CBR reporter, luminescence ratio (green luciferase fused to IkBa over red control in TMD8 lymphoma cells), 4 h; activity change, negative = inhibition: at 46.1 µM (top of the series) unless noted
Outline: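 TMD8 human ABC-DLBCL cells with doxycycline-inducible IκBα–green luciferase fusion and unfused red luciferase, in 0.5% FBS medium; compounds up to 46 uM, 4 h at 37C. Green/red luminescence ratio, filter-overlap corrected, fitted to concentration-response curves.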
Potency means the concentration at half of the fitted maximal effect.

| SMILES | activity change, negative = inhibition | Potency |
| --- | --- | --- |
| Cc1cccn2c(=O)nc(SCC(=O)NCc3ccccc3)nc12 | inconclusive: 2.7% | – |
| Cc1cc(C)n(-c2cc(-c3ccccc3)nc(C)n2)n1 | inconclusive: -0.586% | – |
| CCOC(=O)c1cc(-c2ccccc2)sc1NC(=O)c1ccc(OC)c(OC)c1 | inactive: -4.81% | – |
| C=CCN1C(=O)[C@@H]2Cc3c([nH]c4ccccc34)C(c3cc(OC)c(OC)c(OC)c3)N2C1=S (stereo partly specified) | inconclusive: -21.3% | – |
| CC/C(=N\NC(=O)c1ccc2c(c1)OCO2)c1ccccc1 | – | inconclusive: 10 µM [falling, partial curve] |
| C/C(CC(=O)Nc1ccccn1)=N\NC(=O)c1ccc(C)cc1 | – | inconclusive: 18.4 µM [falling, single point] |
| Fc1ccc(-c2nnc(NC3=NCCCCC3)o2)cc1 | – | inconclusive: 5.01 µM [rising, full curve] |
| CCc1ccc(NC(=O)CSc2nccn(-c3ccc4c(c3)OCCO4)c2=O)cc1 | inactive: 0.816% | – |
| Cc1ccc(S(=O)(=O)NC(=NC(Cc2ccccc2)C(=O)O)c2ccccc2)cc1 (stereo unspecified) | inactive: 6.4% | – |
| COc1ccc(SC[C@H](Cc2ccccc2)N2CC[C@@H](NC(=O)OCc3ccccc3)CCC2=O)cc1 | inconclusive: -6.26% | – |
| CCN1/C(=C/c2ccc3cccc(C)c3[n+]2CC)Sc2ccccc21 | inconclusive: 21.7% | – |
| OCCCc1nc2n(n1)C(c1cccs1)C=C(c1ccc(Br)cc1)N2 (stereo unspecified) | inconclusive: 9.47% | – |
| COc1ccc(C(O)(C(C)C)C(CN2CCOCC2)c2ccccc2)cc1 (stereo unspecified) | inactive: -1.78% | – |
| O=C(Nc1ccc(N2CCOCC2)cc1)c1ccc([N+](=O)[O-])cc1 | inconclusive: 4.67% | – |
| Cn1c(-c2ccccc2)cc2onc(-c3ccccc3)c2c1=O | inconclusive: -22.4% | – |
| COc1ccc(/C=N/NC(=O)c2cccnc2)cc1CN1CCN(c2ccc(F)cc2)CC1 | – | inconclusive: 10 µM [falling, partial curve, poor fit] |
| COc1ccc(OC)c(NC(=O)c2c(NCc3ccc(C)o3)sc3c2CCC(C)C3)c1 (stereo unspecified) | inconclusive: 1.99% | – |
| O=C(Nc1nc2ccccc2s1)c1ccc2c(c1)OCO2 | – | inconclusive: 4.11 µM [falling, partial curve] |
| O=C(Nc1ccc(OC(F)F)cc1)Nc1cccc(C(F)(F)F)c1 | inconclusive: 3.72% | – |
| O=C(O)c1cnn2c1NC(c1ccc(F)cc1)CC2C(F)(F)F (stereo unspecified) | inconclusive: 3.65% | – |
| O=C(O)c1cc(-c2ccco2)nc2cc3ccccc3cc12 | – | inconclusive: 22.4 µM [falling, single point] |
| O=C(NNC(=O)c1cccnc1)Nc1ccccc1 | inconclusive: -6.94% | – |
| O=C(c1cc(-c2ccc(Br)cc2)on1)N1CCCCCC1 | – | inconclusive: 1.26 µM [falling, full curve, poor fit] |
| Nc1c(C(=O)Nc2ccccc2)sc2nc3c(c(-c4ccco4)c12)CCC3 | inactive: -2.08% | – |
| CC(=O)c1cccc(S(=O)(=O)NCCc2csc3nc(-c4ccc(F)cc4)nn23)c1 | – | inconclusive: 14.1 µM [rising, partial curve] |
| CC(C)(C)C(=O)Nc1ccc(/C=C/C(=O)c2ccco2)cc1 | inconclusive: -3.14% | – |

Some of the entries above, set out differently.
SMILES	activity change, negative = inhibition	Potency
Cn1c(-c2ccccc2)cc2onc(-c3ccccc3)c2c1=O	inconclusive: -22.4%	–
COc1ccc(/C=N/NC(=O)c2cccnc2)cc1CN1CCN(c2ccc(F)cc2)CC1	–	inconclusive: 10 µM [falling, partial curve, poor fit]
COc1ccc(OC)c(NC(=O)c2c(NCc3ccc(C)o3)sc3c2CCC(C)C3)c1 (stereo unspecified)	inconclusive: 1.99%	–

Further records

| SMILES | activity change, negative = inhibition | Potency |
| --- | --- | --- |
| Cc1ccc(-c2nn(-c3ccccc3)cc2/C=N/O)cc1 | inactive: 2.31% | – |
| O=C(O)COc1ccccc1C=NNc1ccc([N+](=O)[O-])cc1S(=O)(=O)Nc1ccc(Cl)cc1 | inconclusive: 11.6% | – |
| O=C(OCCN=C1NS(=O)(=O)c2ccccc21)c1cccc([N+](=O)[O-])c1 | inconclusive: 0.223% | – |
| COc1ccccc1C(=O)NNC(=S)NC(=O)c1cc(OC)c(OC)c(OC)c1 | inconclusive: -19.1% | – |
| CCn1c(SCC(=O)Nc2ccc3c(c2)oc2ccccc23)nnc1-c1ccc(N)cc1 | inactive: 12.8% | – |
| O=C(c1ccc(CS(=O)Cc2ccccc2Cl)o1)N1CCN(c2ccccn2)CC1 (stereo unspecified) | inactive: -9.76% | – |
| Cc1[nH]c2ccccc2c1SCC(=O)Nc1nccs1 | inconclusive: 1.07% | – |
| COC(=O)CSc1cccc2c1C(=O)CC2c1ccccc1 (stereo unspecified) | inactive: -11.2% | – |
| O=C(CSc1nc(-c2cccs2)cc(C(F)(F)F)n1)NCCCN1CCOCC1 | inconclusive: 2.18% | – |
| CCCNC(=O)c1onc(CSc2ccc(F)cc2)c1C(=O)NCCC | inconclusive: -1.39% | – |
| CCCCN(C)C(=O)C(Cc1ccccc1)NS(=O)(=O)c1ccc2c(c1)c(=O)n(C)c(=O)n2C (stereo unspecified) | – | inconclusive: 29.1 µM [rising, single point] |
| O=C(O)C(c1ccccc1)N1C(=O)/C(=C\c2ccc(-c3ccc(Br)cc3)o2)SC1=S (stereo unspecified) | inactive: 1.78% | – |
| O=C(N/N=C/c1ccccn1)c1cccc(NC(=O)c2ccccc2Cl)c1 | inconclusive: -2.29% | – |
| COc1ccc(C2=NS(=O)(=O)N(C)C(C(=O)Nc3cc(OC)c(OC)c(OC)c3)=C2)cc1 | inactive: 11.5% | – |
| COc1ccc(CNC(=O)C(C#N)c2nc3ccccc3nc2N2CCCC2)cc1 (stereo unspecified) | inconclusive: 5.4% | – |
| NC(=O)CC(NC(=O)c1ccccc1)c1ccc(N2CCc3ccccc3C2)c([N+](=O)[O-])c1 (stereo unspecified) | – | inconclusive: 11.2 µM [falling, partial curve, poor fit] |
| CSC(=NC#N)N1CCN(C(c2ccccc2)c2ccccc2)CC1 | inconclusive: -2.54% | – |
| CCc1nnc(NS(=O)(=O)c2ccc(N/C=C\C(=O)c3ccc(F)cc3)cc2)s1 | – | inconclusive: 35.5 µM [falling, single point] |
| CCc1ccccc1NCC(=O)Nc1ccccc1C(=O)OC | – | inconclusive: 2.31 µM [falling, full curve, poor fit] |
| COc1ccc(C2CC(=O)C=C(NCc3ccccc3)C2)cc1 (stereo unspecified) | inconclusive: -14.5% | – |
| CC(=O)Nc1ccc(NC(=O)c2cc(=O)c3cc(C)c(C)cc3o2)cc1 | inactive: 1.19% | – |
| COc1ccc(CN2CCN(Cc3nc4ccccc4s3)CC2CCO)c(C)c1C (stereo unspecified) | inconclusive: -20.6% | – |
| Cc1nccn1CCc1n[nH]c(=S)n1Cc1ccccc1 | inactive: 2.84% | – |
| O=C(NCCc1ccc(Cl)cc1)c1cccc(N2CCCC2=O)c1 | inconclusive: -9.54% | – |
| O=C(COC(=O)CCCSc1nc2ccccc2[nH]1)Nc1ccc(Cl)cc1 | inconclusive: -13.5% | – |
| Oc1c(Cl)cc(Cl)cc1CNc1ccc(Br)cn1 | – | inconclusive: 25.9 µM [rising, single point] |

A few values from the results shown:
In activity change, negative = inhibition, `COc1ccc(CNC(=O)C(C#N)c2nc3ccccc3nc2N2CCCC2)cc1` (stereo unspecified) reads inconclusive: 5.4%
In activity change, negative = inhibition, `O=C(N/N=C/c1ccccn1)c1cccc(NC(=O)c2ccccc2Cl)c1` reads inconclusive: -2.29%

Later entries

| SMILES | activity change, negative = inhibition | Potency |
| --- | --- | --- |
| O=C(O)C1=CC[C@@H](c2ccc(Cl)cc2)N(S(=O)(=O)c2ccc(Cl)cc2)[C@H]1c1ccc(Br)cc1 | inconclusive: -7.93% | – |
| S=C(NC1CCCCC1)N(CCc1nc2ccccc2[nH]1)C1CCCC1 | – | inconclusive: 2.59 µM [falling, partial curve, poor fit] |
| Cc1cc(C(=O)Nc2ccc(Cl)cc2)c(C)n1Cc1cccs1 | inconclusive: 15.4% | – |
| CC(C)(C)C(=O)CSc1nc2c(c(-c3cccs3)c1C#N)CCC2 | inactive: 0.998% | – |
| Cc1ccc(C2/C(=C(/O)c3ccc(OC(C)C)cc3)C(=O)C(=O)N2CCN2CCOCC2)cc1 (stereo unspecified) | inconclusive: -0.93% | – |
| COc1ccccc1-c1csc2ncnc(Sc3nnnn3C)c12 | inconclusive: -9.51% | – |
| Cc1ccc(C)c(C(=O)CSc2nnnn2-c2cccnc2)c1 | – | inconclusive: 20.6 µM [falling, partial curve, poor fit] |
| CSCCC(NS(=O)(=O)c1cccc(C(F)(F)F)c1)C(=O)Nc1ccccc1N1CCCC1 (stereo unspecified) | inconclusive: 0.208% | – |
| CC(=O)Nc1ccc(C(=O)N/N=C/c2ccccc2OCc2ccccc2)cc1 | – | inconclusive: 7.08 µM [falling, partial curve, poor fit] |
| C#CCOCCOCCOCCNc1nc(N2CCN(C(=O)CCCCCCCCCCNC(=O)[C@H](CO)n3cc(CCCSC)nn3)CC2)nc(N2CCN(C(=O)CCCCCCCCCCNC(=O)[C@H](CCCN=C(N)N)n3cc(C[C@@H](C)CC)nn3)CC2)n1 | inconclusive: -0.335% | – |
| O=C1N[C@H](Cc2ccccc2)COC(=O)[C@H](Cc2ccc(F)cc2)C/C=C\C[C@H]1CC(=O)N(CCO)Cc1ccccc1 | inconclusive: -0.511% | – |
| CCN(CC)c1ccc(NC(=O)c2ccccc2Br)cc1S(=O)(=O)Nc1ccccc1OC | inconclusive: -0.8% | – |
| CN(NC(=S)Nc1ccc(OC(F)F)cc1)C(=S)Nc1ccc(OC(F)F)cc1 | inconclusive: 17.3% | – |
| CCOc1ccc(NC(=S)NC(=O)c2c(Cl)cnn2CC)c([N+](=O)[O-])c1 | inactive: -1.32% | – |
| COc1ccc(NC(=O)c2ccc(N3CCCC3=O)cc2)cc1Cl | inactive: 6.54% | – |
| CCCCn1cc(C(=O)c2cc(Br)ccc2O)cc(C#N)c1=O | inconclusive: -52.7% | – |
| CC(Sc1nnc(-c2ccc(O)cc2)o1)C(=O)Nc1cccc2ccccc12 (stereo unspecified) | – | inconclusive: 2.06 µM [falling, partial curve] |
| CCOC(=O)[C@@H]1[C@H]2COc3ccc(Br)cc3[C@H]2N2C(=O)N(c3ccc(Br)cc3)C(=O)[C@]12C | inconclusive: -21.2% | – |
| O=C(O)c1ccccc1C(=O)NC1Cc2ccccc2C1 | – | inconclusive: 31.6 µM [falling, single point] |
| Cc1ccc(S(=O)(=O)N2CCCCC2)cc1NC(=O)CCNC(=O)c1ccc([N+](=O)[O-])cc1 | inactive: 1.75% | – |
| COc1ccc2c(c1)CCc1c(C(=O)NCCc3ccc(OC)c(OC)c3)noc1-2 | – | inconclusive: 7.31 µM [falling, partial curve, poor fit] |
| COC(=O)c1cc(OC)c(OC)cc1NC(=O)CC1CCCCC1 | inconclusive: 3.34% | – |
| COc1ccc(N2CCN(C(=O)C(Cc3ccccc3)n3cccc3)CC2)cc1 (stereo unspecified) | inconclusive: 7.07% | – |
| Cc1ccc(-n2cc(CNC(C)c3cnn(C)c3C)c(-c3ccc(F)cc3)n2)cc1 (stereo unspecified) | inconclusive: 9.76% | – |
